Measured values published in PubChem BioAssay AID2685 (National Center for Advancing Translational Sciences (NCATS), 2010).
The list shows a part of the results. Shown are side measurements of this screen, not its main read-out; they come without a call. Compounds called inactive in the main read-out are mostly missing here. Words in brackets tell the shape of the fitted curve; partial curves, single points and poor fits give uncertain potencies.

Assay: qHTS Assay for Lipid Storage Modulators in Drosophila S3 Cells;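 for cell number change: cells counted by Cell Tracker Red CMTPX staining in the red channel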
Conditions: BODIPY lipid droplet fluorescence, 18-24 h; for cell number change: measured here: cell count max response, cells fed with added oleic acid
Summary of the method: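 Drosophila S3 cells got compounds at several concentrations plus oleic acid (400 uM solution). Laser-scanning cytometry with 488 nm excitation read lipid droplets at 500-530 nm and cells at 575-640 nm. Percent activity was relative to 20 uM Triacsin C.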

[1] = measured here: lipid fluorescence (Fed channel) AC50, cells fed with added oleic acid
[2] = measured here: cell number channel AC50, cells fed with added oleic acid

For `O=[N+]([O-])c1ccccc1S(=O)(=O)N1CCCc2ccccc21`, which cell number change is on record?
The cell number change was -8.21%.

And the AC50 [1]?
Its AC50 is 29.1 µM [falling, single point].

Which cell number change does the source give for `CCOc1cccc2cc(C(=O)Nc3ccccc3-c3ccccc3)c(=O)oc12` here?
Its cell number change is 10.5%.

And the AC50 [2]?
Its AC50 is 6.51 µM [rising, single point].

With `CCOc1ccc(S(=O)(=O)N(CC(=O)N2CCc3ccccc32)Cc2ccco2)cc1` as the compound, how does the cell number change read?
The cell number change was -20.7%.

And the AC50 [1]?
The AC50 was 0.00461 µM [rising, full curve].

With `O=C(O)CSCC(=O)N1CCCN(c2nccc(C(F)(F)F)n2)CC1` as the compound, how does the cell number change read?
The cell number change was -18.4%.

And the AC50 [1]?
Its AC50 is 5.8 µM [falling, full curve].

For `COc1ccc(C(=O)Nc2ccc(C(=O)N3CCCCC3)cc2)cc1OC`, which cell number change is on record?
Its cell number change is 42.8%.

What about the AC50 [2] of the same compound?
The AC50 was 29.1 µM [rising, partial curve, poor fit].

And the AC50 [1]?
Its AC50 is 6.51 µM [falling, single point].

For `CC(NC(=O)c1ccc2c(=O)n3c(nc2c1)CCCCC3)c1ccccc1` (configuration not stated), which cell number change is on record?
Its cell number change is 13.7%.

What about the AC50 [1] of the same compound?
The AC50 was 16.4 µM [falling, partial curve, poor fit].

For `CCCCn1c(SCC(=O)N2CCCC2)nc2c1c(=O)n(C)c(=O)n2C`, which cell number change is on record?
The cell number change was 5.89%.

And the AC50 [1]?
Its AC50 is 13 µM [rising, single point].

What does the source list for `COc1cccc(CN(C)C(=O)c2cccc(NC(=O)CC3SC(N4CCCCC4)=NC3=O)c2)c1OC` (configuration not stated)?
cell number change: 32.4%; AC50 [2]: 16.4 µM [rising, partial curve]; AC50 [1]: 25.9 µM [rising, partial curve]

Which cell number change does the source give for `COc1ccc(C(=O)OCC(=O)NC(Cc2ccccc2)C(C)=O)cc1S(=O)(=O)N1CCCC1` (configuration not stated) here?
Its cell number change is -33.7%.

And the AC50 [2]?
The AC50 was 29.1 µM [falling, single point].

For `COc1ccccc1NC(=S)NCc1ccc(F)cc1`, which AC50 [1] is on record?
Its AC50 is 29.1 µM [falling, single point].

What does the source list for `O=C1CCCC2=C1C1(CCCC1)N=C(Nc1nc3ccccc3s1)N2`?
cell number change: 1.78%; AC50 [2]: 0.00461 µM [rising, full curve, poor fit]; AC50 [1]: 1.16 µM [rising, partial curve, poor fit]

For `COC(=O)C1=C(C)N(c2cc(Cl)cc(Cl)c2)C(=O)C1`, which cell number change is on record?
The cell number change was 2.39%.

And the AC50 [1]?
The AC50 was 0.13 µM [rising, full curve, poor fit].

What does the source list for `Cc1sc(NC(=O)CSc2nnc(-c3ccccc3)o2)c(C#N)c1C`?
cell number change: -15.5%; AC50 [1]: 0.164 µM [rising, partial curve]

Which cell number change does the source give for `COc1ccc(CCNC(=O)CSc2nnc(-c3ccccc3)c3ccccc23)cc1OC` here?
Its cell number change is -39.2%.

What about the AC50 [2] of the same compound?
Its AC50 is 14.6 µM [falling, single point].

What about the AC50 [1] of the same compound?
The AC50 was 10.3 µM [falling, partial curve].

For `O=C(N/N=C/c1coc2ccccc2c1=O)c1cc(Br)c(O)c(Br)c1`, which cell number change is on record?
The cell number change was 19.8%.

What about the AC50 [2] of the same compound?
The AC50 was 0.731 µM [rising, partial curve, poor fit].

And the AC50 [1]?
Its AC50 is 29.1 µM [rising, single point].

Which cell number change does the source give for `COc1ccc(OC2C(=O)N(c3ccc(C)c(C)c3)C2c2ccc(OC)c(OC)c2)cc1` (configuration not stated) here?
Its cell number change is -24.8%.

Which AC50 [1] does the source give for `O=C(COC(=O)c1cnccn1)NCc1ccc2c(c1)OCO2` here?
The AC50 was 0.651 µM [falling, full curve].

For `CCC(Sc1ccc(Cl)cc1)C(=O)Nc1nnc(-c2cccc([N+](=O)[O-])c2)s1` (configuration not stated), which cell number change is on record?
Its cell number change is 11.8%.

For `CCNc1nc(SC(C)C(=O)Nc2ccccc2)nc(N(C)C)n1` (configuration not stated), which cell number change is on record?
Its cell number change is -51.5%.

What about the AC50 [2] of the same compound?
The AC50 was 14.6 µM [falling, partial curve].

What about the AC50 [1] of the same compound?
The AC50 was 8.2 µM [falling, partial curve].

Which cell number change does the source give for `CC1CCCCN1C(=O)C12CCC(C)(C(=O)C1)C2(C)C` (configuration not stated) here?
Its cell number change is -20.7%.

What about the AC50 [1] of the same compound?
The AC50 was 0.517 µM [falling, full curve].

With `COc1ccc(Cl)cc1NC(=O)Cn1nc(-c2ccc(C)cc2)n(C)c1=S` as the compound, how does the cell number change read?
The cell number change was 3.72%.

What about the AC50 [1] of the same compound?
Its AC50 is 25.9 µM [rising, single point].

For `S=C(c1ccc(-c2cc(Cl)ccc2Cl)o1)N1CCOCC1`, which cell number change is on record?
Its cell number change is 69.8%.

And the AC50 [2]?
Its AC50 is 0.517 µM [rising, full curve].

What about the AC50 [1] of the same compound?
Its AC50 is 1.3 µM [rising, partial curve].

Which cell number change does the source give for `O=S(=O)(O/N=C1\CCCc2ccccc21)c1ccccc1` here?
The cell number change was -1.98%.

And the AC50 [1]?
The AC50 was 0.164 µM [falling, full curve, poor fit].

What does the source list for `COc1cc(C(=O)Nc2ccc(S(=O)(=O)N(C)c3ccccc3)cc2)cc(OC)c1OC`?
cell number change: -1.64%; AC50 [1]: 18.4 µM [falling, single point]

With `Cc1ccc(NC(=O)CN2C(=O)NC(Cc3ccccc3)C2=O)c(Br)c1` (configuration not stated) as the compound, how does the AC50 [2] read?
The AC50 was 0.411 µM [rising, partial curve].

Which results are given for `Cc1ccc(S(=O)(=O)N(C)CC(=O)OCc2nnc(-c3ccccc3)o2)cc1`?
cell number change: 3.97%; AC50 [1]: 29.1 µM [falling, single point]

Which cell number change does the source give for `O=C(Nc1cccc(C(F)(F)F)c1)C1CCCN(S(=O)(=O)c2cnc[nH]2)C1` (configuration not stated) here?
The cell number change was 4.18%.

Which cell number change does the source give for `Cn1c(N)c(C(=O)COC(=O)CCOc2ccc(C(C)(C)C)cc2)c(=O)n(C)c1=O` here?
The cell number change was 119%.

What about the AC50 [2] of the same compound?
The AC50 was 29.1 µM [rising, single point].

What about the AC50 [1] of the same compound?
Its AC50 is 29.1 µM [rising, partial curve].

For `COc1cccc(/C=N/NC(=O)c2cnn(-c3ccccc3)c2N)c1`, which cell number change is on record?
Its cell number change is -19.9%.

And the AC50 [1]?
Its AC50 is 29.1 µM [falling, single point].

What does the source list for `COc1ccccc1/C=N\N=C(\N)c1ccccn1`?
cell number change: 8.21%; AC50 [1]: 0.731 µM [falling, full curve, poor fit]

For `CCOc1ccc(C(=O)N/N=C/c2cccc3cccnc23)cc1`, which cell number change is on record?
The cell number change was -14.3%.

And the AC50 [1]?
Its AC50 is 2.31 µM [falling, partial curve].

For `C[C@H](NC(=O)C1(c2ccccc2)CCN(C(=O)[C@H]2CSCN2C(=O)OC(C)(C)C)CC1)C(=O)O`, which AC50 [1] is on record?
Its AC50 is 29.1 µM [falling, single point].

Which cell number change does the source give for `COc1cccc(-c2coc3c(C)c4oc(=O)c(CC(=O)O)c(C)c4cc23)c1` here?
Its cell number change is -21.6%.

What about the AC50 [2] of the same compound?
The AC50 was 0.13 µM [falling, full curve, poor fit].

What about the AC50 [1] of the same compound?
Its AC50 is 6.51 µM [rising, single point].

Which results are given for `COc1cccc(N(C(=O)Cn2nnc(-c3ccc(C)o3)n2)C(C(=O)NC2CCCC2)c2ccncc2)c1` (configuration not stated)?
cell number change: -1.32%; AC50 [1]: 35.5 µM [falling, single point]

Which results are given for `O=C(CC1OC(=O)c2ccccc21)Nc1cc(Cl)ccc1N1CCCC1` (configuration not stated)?
cell number change: -36.9%; AC50 [2]: 1.3 µM [rising, partial curve]
